No constants are given. Whether binding was seen depends on the method and setting. Binding seen in cells or lysates may run through a third protein. Some entries that bind do so weakly or less than the wild type. For some assays here: Where a sequence is shown, tags or fusion partners need not be part of it.
T1: Drosophila Nsd, GFP-tagged (nsd-GFP construct for in vitro transfection) (Drosophila) (UniProt Q8MT36)
T1 sequence: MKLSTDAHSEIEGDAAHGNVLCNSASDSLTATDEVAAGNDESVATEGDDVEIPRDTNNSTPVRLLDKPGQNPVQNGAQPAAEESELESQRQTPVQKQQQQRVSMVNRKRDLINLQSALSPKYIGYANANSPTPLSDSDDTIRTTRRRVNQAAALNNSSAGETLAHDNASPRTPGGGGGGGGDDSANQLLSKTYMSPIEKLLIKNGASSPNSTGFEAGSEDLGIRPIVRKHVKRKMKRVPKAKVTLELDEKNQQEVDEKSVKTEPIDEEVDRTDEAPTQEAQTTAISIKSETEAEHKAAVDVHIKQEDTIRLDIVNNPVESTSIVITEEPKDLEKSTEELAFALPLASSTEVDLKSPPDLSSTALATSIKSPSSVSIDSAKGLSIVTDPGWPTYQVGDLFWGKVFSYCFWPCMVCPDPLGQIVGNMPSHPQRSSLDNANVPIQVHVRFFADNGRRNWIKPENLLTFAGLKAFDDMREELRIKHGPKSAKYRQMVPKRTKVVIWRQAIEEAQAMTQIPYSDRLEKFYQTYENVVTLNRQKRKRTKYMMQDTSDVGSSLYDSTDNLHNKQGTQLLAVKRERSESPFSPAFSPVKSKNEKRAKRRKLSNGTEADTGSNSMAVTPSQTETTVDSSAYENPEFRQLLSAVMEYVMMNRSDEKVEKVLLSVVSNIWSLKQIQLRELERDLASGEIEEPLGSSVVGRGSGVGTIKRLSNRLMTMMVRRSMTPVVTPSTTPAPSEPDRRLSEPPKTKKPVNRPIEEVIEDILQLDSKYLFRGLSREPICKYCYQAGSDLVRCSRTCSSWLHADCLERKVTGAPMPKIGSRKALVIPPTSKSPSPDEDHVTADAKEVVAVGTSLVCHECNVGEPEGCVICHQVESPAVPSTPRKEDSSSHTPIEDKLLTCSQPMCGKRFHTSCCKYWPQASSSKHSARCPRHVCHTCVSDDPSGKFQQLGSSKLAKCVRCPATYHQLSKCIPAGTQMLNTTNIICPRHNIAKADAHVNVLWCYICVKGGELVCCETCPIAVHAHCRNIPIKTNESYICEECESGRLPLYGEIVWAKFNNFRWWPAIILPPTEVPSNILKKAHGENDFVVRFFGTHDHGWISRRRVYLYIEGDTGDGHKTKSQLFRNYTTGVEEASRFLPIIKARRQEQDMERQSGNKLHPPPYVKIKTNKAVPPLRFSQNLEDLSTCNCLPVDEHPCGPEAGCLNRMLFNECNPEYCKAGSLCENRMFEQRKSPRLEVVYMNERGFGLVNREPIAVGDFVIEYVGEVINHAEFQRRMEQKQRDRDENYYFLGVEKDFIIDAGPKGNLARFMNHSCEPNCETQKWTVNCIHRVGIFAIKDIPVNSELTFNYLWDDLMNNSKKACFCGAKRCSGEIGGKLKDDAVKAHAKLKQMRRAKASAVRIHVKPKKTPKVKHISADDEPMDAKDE

The chains behind the UniProt entries cited, without tags or fusion partners.
UniProt Q8BVE8: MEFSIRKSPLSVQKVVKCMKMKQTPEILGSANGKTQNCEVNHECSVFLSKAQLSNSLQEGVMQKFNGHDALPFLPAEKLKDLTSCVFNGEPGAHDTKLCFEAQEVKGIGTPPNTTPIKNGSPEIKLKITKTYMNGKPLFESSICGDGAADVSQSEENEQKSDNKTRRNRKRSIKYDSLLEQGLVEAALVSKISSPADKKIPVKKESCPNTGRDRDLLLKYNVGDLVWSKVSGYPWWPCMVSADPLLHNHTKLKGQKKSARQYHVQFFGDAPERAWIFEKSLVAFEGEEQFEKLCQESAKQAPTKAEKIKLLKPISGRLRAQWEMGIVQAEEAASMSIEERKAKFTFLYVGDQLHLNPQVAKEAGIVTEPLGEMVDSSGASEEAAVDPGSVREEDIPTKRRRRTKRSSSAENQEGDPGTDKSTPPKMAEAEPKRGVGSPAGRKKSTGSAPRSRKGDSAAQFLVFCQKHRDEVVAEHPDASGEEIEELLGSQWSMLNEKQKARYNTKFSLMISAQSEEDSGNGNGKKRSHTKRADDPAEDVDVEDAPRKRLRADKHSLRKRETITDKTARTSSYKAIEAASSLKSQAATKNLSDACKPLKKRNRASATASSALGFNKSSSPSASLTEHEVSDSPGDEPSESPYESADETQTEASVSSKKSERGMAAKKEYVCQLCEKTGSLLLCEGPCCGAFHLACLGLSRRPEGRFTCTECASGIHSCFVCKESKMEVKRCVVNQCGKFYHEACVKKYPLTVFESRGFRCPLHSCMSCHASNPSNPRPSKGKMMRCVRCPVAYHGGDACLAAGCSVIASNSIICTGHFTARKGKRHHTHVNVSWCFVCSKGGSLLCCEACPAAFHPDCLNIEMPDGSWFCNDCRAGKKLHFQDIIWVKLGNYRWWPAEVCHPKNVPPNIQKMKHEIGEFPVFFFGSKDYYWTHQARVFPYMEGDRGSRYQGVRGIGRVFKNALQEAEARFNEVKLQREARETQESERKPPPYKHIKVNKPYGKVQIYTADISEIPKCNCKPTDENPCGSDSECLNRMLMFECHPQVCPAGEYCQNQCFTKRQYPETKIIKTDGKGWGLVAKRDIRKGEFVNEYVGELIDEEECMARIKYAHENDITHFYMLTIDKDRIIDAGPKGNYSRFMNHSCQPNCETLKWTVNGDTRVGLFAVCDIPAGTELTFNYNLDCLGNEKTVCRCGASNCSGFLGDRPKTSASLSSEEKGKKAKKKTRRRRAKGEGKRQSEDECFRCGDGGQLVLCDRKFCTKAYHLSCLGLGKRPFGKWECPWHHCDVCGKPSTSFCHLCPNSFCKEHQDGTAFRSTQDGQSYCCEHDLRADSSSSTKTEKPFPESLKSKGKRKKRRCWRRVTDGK
UniProt P43274: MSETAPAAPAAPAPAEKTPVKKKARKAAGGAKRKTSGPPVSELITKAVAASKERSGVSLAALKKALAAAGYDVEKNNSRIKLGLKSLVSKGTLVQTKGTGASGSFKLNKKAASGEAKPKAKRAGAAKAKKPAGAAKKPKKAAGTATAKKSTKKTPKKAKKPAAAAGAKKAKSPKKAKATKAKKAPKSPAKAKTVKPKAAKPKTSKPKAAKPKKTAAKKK

B1: Drosophila linker histone H1 (His1), FLAG-tagged (his1-FLAG construct for in vitro transfection) (protein, UniProt P02255 1-256)
chain: MSDSAVATSASPVAAPPATVEKKVVQKKASGSAGTKAKKASATPSHPPTQQMVDASIKNLKERGGSSLLAIKKYITATYKCDAQKLAPFIKKYLKSAVVNGKLIQTKGKGASGSFKLSASAKKEKDPKAKSKVLSAEKKVQSKKVASKKIGVSSKKTAVGAADKKPKAKKAVATKKTAENKKTEKAKAKDAKKTGIIKSKPAATKAKVTAAKPKAVVAKASKAKPAVSAKPKKTVKKASVSATAKKPKAKTTAAKK

What was measured:
[1] = biological target: mouse NSD2, GFP-tagged (Nsd2-GFP construct for in vitro transfection) (mouse) (UniProt Q8BVE8); test: co-IP
[2] = biological target: T1, Drosophila Nsd, GFP-tagged (nsd-GFP construct for in vitro transfection) (Drosophila); test: co-IP

Molecule | binding [1] | binding [2]
mouse linker histone HIST1H1E, FLAG-tagged (Hist1h1e-FLAG) (from UniProt P43274 1-219) | no binding | 
B1 |  | binds
